The other results are listed elsewhere or left out.
Tests used:
Assay in all cases: log2 fold change, soluble protein after heating vs DMSO (PISA); higher = thermal stabilisation; K562 lysate, 10 uM; active = over 0.2 and 3.5 SD of the protein, either way, in both replicates (recomputed)
alvocidib = compound: CN1CC[C@H](c2c(O)cc(O)c3c(=O)cc(-c4ccccc4Cl)oc23)[C@H](O)C1 [alvocidib]
Procedure, shortened: (§1)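 Values give the log-two fold change in thermal stability against solvent controls, from duplicates. Crude K562 extract at 1 mg/mL protein, made by dounce homogenisation in PBS pH 7.4 with 1 mM MgCl2, was treated with 10 μM compound for 30 min. After 3 min heating across 48°C-58°C, aliquots were pooled, adjusted to 0.5% NP-40 at 4°C and centrifuged at 21,000xg for 90 min. The supernatant was measured by TMTpro 16plex LC-MS/MS with channel sums equalised.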

Chains of the proteins cited; added tags and fusions are not shown. Lines headed by an entry give the natural chain unless they say otherwise; changes in a name come on top.
UniProt P40227, whole entry, looked up: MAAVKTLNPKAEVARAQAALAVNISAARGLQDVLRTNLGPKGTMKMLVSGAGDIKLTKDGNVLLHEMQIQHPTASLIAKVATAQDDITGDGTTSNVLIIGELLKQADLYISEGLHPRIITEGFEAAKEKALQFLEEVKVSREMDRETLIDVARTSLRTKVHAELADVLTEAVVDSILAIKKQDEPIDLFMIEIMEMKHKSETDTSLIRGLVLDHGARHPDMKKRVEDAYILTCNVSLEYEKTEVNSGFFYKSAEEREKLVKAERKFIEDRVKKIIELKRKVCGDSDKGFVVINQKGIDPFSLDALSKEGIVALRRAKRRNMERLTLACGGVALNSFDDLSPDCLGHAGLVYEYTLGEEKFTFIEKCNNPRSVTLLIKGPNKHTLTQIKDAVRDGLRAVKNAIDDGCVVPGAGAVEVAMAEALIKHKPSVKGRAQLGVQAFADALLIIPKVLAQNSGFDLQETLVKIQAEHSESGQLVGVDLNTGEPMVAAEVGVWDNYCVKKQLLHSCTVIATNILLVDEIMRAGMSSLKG
UniProt Q9H6F5: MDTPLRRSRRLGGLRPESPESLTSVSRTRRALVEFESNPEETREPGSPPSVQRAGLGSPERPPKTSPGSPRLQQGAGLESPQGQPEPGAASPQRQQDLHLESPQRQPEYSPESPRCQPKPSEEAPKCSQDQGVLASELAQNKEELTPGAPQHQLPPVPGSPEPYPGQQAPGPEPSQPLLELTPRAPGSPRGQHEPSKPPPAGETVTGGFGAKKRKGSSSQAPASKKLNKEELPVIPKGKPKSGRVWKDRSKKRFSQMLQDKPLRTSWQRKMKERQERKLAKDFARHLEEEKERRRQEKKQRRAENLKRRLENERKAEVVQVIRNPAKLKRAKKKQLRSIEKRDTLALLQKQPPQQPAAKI
UniProt Q6TDU7: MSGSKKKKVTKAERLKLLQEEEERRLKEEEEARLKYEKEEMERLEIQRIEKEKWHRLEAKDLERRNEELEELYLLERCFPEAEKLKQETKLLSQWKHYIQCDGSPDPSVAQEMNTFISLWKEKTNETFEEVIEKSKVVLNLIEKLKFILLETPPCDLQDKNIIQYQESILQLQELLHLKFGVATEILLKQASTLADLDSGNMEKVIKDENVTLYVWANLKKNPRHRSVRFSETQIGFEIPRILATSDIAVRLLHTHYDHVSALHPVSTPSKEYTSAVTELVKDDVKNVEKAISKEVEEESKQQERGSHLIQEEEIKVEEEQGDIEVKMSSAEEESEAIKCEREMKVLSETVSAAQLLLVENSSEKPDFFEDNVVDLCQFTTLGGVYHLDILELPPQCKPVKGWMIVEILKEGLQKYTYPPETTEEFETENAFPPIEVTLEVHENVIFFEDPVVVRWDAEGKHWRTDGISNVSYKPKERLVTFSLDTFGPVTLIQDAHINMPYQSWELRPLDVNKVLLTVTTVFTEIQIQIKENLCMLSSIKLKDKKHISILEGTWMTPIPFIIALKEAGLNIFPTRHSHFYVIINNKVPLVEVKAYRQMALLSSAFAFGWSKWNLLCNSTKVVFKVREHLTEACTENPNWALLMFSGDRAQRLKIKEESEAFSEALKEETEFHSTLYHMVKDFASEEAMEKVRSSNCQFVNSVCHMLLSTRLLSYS
UniProt O95400: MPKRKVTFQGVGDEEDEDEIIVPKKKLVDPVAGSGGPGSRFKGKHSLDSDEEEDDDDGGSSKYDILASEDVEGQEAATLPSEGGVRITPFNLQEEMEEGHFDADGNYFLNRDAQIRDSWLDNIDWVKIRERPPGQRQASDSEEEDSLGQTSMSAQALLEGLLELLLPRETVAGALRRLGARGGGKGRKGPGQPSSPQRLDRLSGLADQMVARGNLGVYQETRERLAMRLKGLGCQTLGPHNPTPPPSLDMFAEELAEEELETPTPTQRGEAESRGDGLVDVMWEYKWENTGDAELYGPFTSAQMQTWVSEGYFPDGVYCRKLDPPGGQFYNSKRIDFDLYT
UniProt O15234, whole entry, looked up: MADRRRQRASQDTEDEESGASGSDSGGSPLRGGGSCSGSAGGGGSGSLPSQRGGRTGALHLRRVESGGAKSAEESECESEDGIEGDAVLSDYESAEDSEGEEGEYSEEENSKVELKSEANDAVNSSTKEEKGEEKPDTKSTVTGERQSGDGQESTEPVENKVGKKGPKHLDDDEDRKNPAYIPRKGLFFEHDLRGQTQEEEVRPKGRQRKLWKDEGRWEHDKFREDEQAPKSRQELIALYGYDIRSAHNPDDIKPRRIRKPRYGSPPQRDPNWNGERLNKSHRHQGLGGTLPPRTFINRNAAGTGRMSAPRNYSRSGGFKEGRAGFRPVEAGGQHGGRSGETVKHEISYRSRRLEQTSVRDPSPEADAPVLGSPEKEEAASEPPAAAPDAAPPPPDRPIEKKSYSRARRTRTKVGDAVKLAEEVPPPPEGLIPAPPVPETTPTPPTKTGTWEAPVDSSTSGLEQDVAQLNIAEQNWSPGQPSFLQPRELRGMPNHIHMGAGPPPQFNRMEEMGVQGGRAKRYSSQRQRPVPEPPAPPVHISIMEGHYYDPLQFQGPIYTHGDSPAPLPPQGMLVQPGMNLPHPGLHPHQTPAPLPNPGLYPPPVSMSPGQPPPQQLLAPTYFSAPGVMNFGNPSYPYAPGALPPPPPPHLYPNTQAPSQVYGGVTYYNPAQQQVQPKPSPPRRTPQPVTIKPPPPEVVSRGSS
UniProt P20810: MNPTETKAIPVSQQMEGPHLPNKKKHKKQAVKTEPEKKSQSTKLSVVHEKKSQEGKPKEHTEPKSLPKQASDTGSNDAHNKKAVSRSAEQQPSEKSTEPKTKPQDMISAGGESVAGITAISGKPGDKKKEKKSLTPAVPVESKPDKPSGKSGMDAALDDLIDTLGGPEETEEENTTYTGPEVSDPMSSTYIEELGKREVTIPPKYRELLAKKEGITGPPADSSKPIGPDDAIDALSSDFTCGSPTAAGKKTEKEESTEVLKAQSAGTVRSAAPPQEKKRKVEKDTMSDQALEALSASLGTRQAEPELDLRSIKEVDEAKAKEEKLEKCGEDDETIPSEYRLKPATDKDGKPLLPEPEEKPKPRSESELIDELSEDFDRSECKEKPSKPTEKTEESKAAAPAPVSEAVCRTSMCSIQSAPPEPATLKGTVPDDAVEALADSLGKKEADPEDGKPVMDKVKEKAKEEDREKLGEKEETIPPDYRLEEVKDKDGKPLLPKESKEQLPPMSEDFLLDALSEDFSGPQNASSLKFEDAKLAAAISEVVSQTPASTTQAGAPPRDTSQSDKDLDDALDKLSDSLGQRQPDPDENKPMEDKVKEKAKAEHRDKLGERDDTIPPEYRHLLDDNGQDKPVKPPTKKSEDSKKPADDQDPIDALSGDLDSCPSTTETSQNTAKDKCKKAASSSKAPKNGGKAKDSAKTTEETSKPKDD
UniProt O75909: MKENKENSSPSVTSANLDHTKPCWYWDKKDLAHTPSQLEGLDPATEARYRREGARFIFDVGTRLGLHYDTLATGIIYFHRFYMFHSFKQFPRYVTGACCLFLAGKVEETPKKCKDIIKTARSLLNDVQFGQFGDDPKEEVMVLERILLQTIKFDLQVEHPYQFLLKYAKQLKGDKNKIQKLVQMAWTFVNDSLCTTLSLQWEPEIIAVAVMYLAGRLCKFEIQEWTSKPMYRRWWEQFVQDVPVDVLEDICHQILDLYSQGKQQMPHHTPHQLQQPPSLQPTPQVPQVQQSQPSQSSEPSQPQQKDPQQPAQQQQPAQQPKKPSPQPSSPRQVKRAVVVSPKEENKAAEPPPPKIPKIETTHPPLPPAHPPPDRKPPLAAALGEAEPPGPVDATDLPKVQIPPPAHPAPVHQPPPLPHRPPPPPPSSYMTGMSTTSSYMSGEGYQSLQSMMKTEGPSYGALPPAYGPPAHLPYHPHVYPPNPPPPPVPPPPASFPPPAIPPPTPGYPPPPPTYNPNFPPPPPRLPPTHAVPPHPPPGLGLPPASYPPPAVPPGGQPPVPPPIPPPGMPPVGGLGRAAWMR
UniProt P25942, whole entry, looked up: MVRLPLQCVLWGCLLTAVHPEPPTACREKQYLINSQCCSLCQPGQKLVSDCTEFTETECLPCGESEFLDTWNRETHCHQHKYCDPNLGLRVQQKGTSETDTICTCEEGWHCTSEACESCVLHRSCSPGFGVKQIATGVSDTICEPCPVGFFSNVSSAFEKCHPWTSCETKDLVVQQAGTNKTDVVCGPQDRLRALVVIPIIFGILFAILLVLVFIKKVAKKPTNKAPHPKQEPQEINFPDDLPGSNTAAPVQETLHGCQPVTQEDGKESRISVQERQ
UniProt Q3V6T2: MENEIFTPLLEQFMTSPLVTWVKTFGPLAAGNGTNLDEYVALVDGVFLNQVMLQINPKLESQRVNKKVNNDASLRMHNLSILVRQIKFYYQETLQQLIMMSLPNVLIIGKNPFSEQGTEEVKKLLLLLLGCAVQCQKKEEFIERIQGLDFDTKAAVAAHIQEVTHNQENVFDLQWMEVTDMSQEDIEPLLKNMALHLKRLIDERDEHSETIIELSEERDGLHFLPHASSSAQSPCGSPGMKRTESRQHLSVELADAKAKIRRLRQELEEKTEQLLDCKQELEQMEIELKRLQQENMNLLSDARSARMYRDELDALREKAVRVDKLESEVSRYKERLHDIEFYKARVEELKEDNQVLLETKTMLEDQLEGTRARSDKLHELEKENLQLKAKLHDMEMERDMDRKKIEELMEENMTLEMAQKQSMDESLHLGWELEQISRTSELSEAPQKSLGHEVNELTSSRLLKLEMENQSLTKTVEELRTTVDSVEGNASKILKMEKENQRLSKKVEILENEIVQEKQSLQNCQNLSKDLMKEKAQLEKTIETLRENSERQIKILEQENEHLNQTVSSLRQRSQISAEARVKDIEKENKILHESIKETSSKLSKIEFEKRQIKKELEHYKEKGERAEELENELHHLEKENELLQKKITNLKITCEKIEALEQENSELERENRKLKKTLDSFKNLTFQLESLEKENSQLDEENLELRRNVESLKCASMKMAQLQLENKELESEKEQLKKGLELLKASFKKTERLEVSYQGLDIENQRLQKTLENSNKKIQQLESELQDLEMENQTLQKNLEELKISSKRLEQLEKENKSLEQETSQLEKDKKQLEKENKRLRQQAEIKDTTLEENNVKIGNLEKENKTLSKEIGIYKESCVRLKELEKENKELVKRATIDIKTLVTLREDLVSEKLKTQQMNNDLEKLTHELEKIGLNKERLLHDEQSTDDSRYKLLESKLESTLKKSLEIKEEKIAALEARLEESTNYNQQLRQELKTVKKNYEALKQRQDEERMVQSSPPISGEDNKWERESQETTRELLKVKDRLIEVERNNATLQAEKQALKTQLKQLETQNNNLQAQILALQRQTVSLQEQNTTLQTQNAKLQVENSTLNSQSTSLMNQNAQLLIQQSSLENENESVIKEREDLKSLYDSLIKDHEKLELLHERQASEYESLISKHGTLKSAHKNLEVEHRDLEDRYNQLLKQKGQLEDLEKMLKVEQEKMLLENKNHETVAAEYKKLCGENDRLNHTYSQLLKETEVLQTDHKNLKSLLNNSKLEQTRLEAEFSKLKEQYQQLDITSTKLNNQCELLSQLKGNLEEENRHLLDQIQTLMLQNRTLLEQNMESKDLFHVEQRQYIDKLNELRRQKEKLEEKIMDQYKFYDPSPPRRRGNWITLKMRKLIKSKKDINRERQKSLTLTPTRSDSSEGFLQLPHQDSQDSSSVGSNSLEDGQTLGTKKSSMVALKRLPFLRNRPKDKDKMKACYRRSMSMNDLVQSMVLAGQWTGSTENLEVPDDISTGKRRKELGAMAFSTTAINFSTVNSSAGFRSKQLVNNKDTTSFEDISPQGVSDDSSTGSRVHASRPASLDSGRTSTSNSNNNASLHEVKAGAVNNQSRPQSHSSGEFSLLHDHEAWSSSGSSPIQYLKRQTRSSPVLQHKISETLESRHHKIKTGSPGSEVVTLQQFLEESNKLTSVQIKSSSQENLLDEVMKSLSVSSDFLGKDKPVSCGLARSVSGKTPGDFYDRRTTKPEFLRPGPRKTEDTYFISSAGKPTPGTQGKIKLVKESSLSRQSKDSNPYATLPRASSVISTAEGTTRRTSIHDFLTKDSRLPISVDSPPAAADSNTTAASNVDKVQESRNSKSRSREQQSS
UniProt Q96CT7: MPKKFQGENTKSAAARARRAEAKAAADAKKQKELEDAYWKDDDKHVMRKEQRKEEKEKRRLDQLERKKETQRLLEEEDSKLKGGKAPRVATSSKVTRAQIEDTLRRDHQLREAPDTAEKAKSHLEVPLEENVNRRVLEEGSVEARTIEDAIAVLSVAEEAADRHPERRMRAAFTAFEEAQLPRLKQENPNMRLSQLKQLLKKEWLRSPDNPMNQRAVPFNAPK
UniProt Q13951, whole entry, looked up: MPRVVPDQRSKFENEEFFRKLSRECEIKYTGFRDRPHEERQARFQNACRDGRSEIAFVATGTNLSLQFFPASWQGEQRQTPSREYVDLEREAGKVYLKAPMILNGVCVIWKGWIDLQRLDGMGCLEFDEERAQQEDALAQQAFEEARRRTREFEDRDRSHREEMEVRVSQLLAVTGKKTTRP

Tubastatin A = compound: CN1CCc2c(c3ccccc3n2Cc2ccc(C(=O)NO)cc2)C1 [Tubastatin A]
Procedure, shortened: as §1

[1] = compound: CNC(=O)C1=CC=CC=C1NC2=NC(=NC=C2Cl)NC3=C(C=C(C=C3)N4CCOCC4)OC
Procedure, shortened: as §1

defactinib = compound: CNC(=O)c1ccc(Nc2ncc(C(F)(F)F)c(NCc3nccnc3N(C)S(C)(=O)=O)n2)cc1 [defactinib]
Procedure, shortened: as §1

[2] = compound: CNc1nc(-c2ccc3c(N)n[nH]c3c2)cc(N2C[C@@H](C(=O)NC3CCCCC3)CC[C@H]2C)n1
Procedure, shortened: as §1

encorafenib = compound: COC(=O)N[C@@H](C)CNc1nccc(-c2cn(C(C)C)nc2-c2cc(Cl)cc(NS(C)(=O)=O)c2F)n1 [encorafenib]
Procedure, shortened: as §1

[3] = compound: COC(=O)[C@H](CCSC)NC(=O)C1=C(C=C(C=C1)NC[C@H](CS)N)C2=CC=CC=C2
Procedure, shortened: as §1

alisertib = compound: COc1cc(Nc2ncc3c(n2)-c2ccc(Cl)cc2C(c2c(F)cccc2OC)=NC3)ccc1C(=O)O [alisertib]
Procedure, shortened: as §1

[4] = compound: COc1cc2nc(-c3cc(F)ccc3O)nc(N[C@@H]3CNC[C@H]3C(C)(C)O)c2cc1OC
Procedure, shortened: as §1

gefitinib = compound: COc1cc2ncnc(Nc3ccc(F)c(Cl)c3)c2cc1OCCCN1CCOCC1 [gefitinib]
Procedure, shortened: as §1

Measured: log2 fold change

CCT6A (UniProt P40227)
inactive: alvocidib 0.027 | Tubastatin A 0.025 | [1] 0.006 | defactinib -0.018 | [2] -0.001 | encorafenib -0.015 | [3] -0.024 | alisertib 0.012 | [4] -0.003 | gefitinib -0.021

CARD8 isoform 5 (UniProt Q9Y2G2)
inactive: alvocidib -0.005 | Tubastatin A -0.018 | [1] 0.004 | defactinib 0.095 | [2] 0.041 | encorafenib 0.008 | [3] -0.072 | alisertib -0.022 | [4] -0.02 | gefitinib 0.017

CCDC43 (UniProt Q96MW1)
inactive: alvocidib -0.05 | Tubastatin A -0.028 | [1] -0.056 | defactinib -0.054 | [2] 0.035 | encorafenib 0.019 | [3] -0.025 | alisertib -0.004 | [4] -0.024 | gefitinib -0.011

CCDC86 (UniProt Q9H6F5)
inactive: alvocidib -0.084 | Tubastatin A 0.109 | [1] 0.011 | defactinib -0.004 | [2] 0.033 | encorafenib -0.021 | [3] -0.013 | alisertib -0.007 | [4] -0.007 | gefitinib -0.016

CD109 (UniProt Q6YHK3)
inactive: alvocidib -0.077

CARM1 (UniProt Q86X55)
inactive: alvocidib -0.015 | Tubastatin A 0.021 | [1] -0.053 | defactinib -0.047 | [2] 0.001 | encorafenib -0.012 | [3] -0.039 | alisertib 0.008 | [4] 0.023 | gefitinib -0.02

CCNB1 (UniProt P14635)
active: [4] 0.407
inactive: alvocidib -0.015 | Tubastatin A 0.021 | [1] -0.003 | defactinib -0.117 | [2] 0.028 | encorafenib 0.029 | [3] -0.023 | alisertib 0 | gefitinib -0.024

CD276 (UniProt Q5ZPR3)
inactive: alvocidib 0.25 | Tubastatin A -0.075 | [1] 0.076

CASC1 (UniProt Q6TDU7)
inactive: alvocidib -0.023 | Tubastatin A 0.317

CCDC58 (UniProt Q4VC31)
inactive: alvocidib 0.06 | Tubastatin A 0.041 | [1] 0.046 | defactinib -0.018 | [2] 0.013 | encorafenib -0.017 | [3] -0.076 | alisertib 0.01 | [4] -0.021 | gefitinib 0.013

CCNB2 (UniProt O95067)
inactive: alvocidib 0.046 | Tubastatin A 0.027 | [1] 0.028 | defactinib -0.044 | [2] 0 | encorafenib 0.039 | [3] 0.032 | alisertib -0.076 | [4] 0.031 | gefitinib 0.084

CD2BP2 (UniProt O95400)
inactive: alvocidib 0.046 | Tubastatin A -0.043 | [1] -0.019 | defactinib 0.011 | [2] 0.002 | encorafenib 0.027 | [3] -0.132 | alisertib -0.001 | [4] -0.01 | gefitinib -0.02

CCND1 (UniProt P24385)
inactive: alvocidib 0.036

CASC3 (UniProt O15234)
inactive: alvocidib -0.045 | Tubastatin A 0.073 | [1] -0.023 | defactinib 0.012 | [2] 0.001 | encorafenib 0.065 | [3] -0.057 | alisertib 0.035 | [4] 0.012 | gefitinib 0.007

CAST isoform 6 (UniProt P20810)
inactive: alvocidib -0.002 | Tubastatin A 0.031 | [1] 0.004 | defactinib -0.025 | [2] -0.022 | encorafenib 0.014 | [3] -0.055 | alisertib -0.014 | [4] 0.005 | gefitinib -0.022

CCAR2 (UniProt Q8N163)
inactive: alvocidib -0.052 | Tubastatin A -0.096 | [1] 0.001 | defactinib 0.018 | [2] -0.02 | encorafenib 0.014 | [3] 0.011 | alisertib 0.014 | [4] 0 | gefitinib 0.003

CCNY (UniProt Q8ND76)
inactive: alvocidib 0.001 | Tubastatin A -0.139 | [1] -0.015 | defactinib 0.011 | [2] 0.04 | encorafenib 0.023 | [3] -0.085 | alisertib 0.037 | [4] 0.008 | gefitinib -0.091

Quoted from above (2 entries):
CAST isoform 6 (UniProt P20810)
inactive: alvocidib -0.002 | Tubastatin A 0.031 | [1] 0.004 | defactinib -0.025 | [2] -0.022 | encorafenib 0.014 | [3] -0.055 | alisertib -0.014 | [4] 0.005 | gefitinib -0.022

CCAR2 (UniProt Q8N163)
inactive: alvocidib -0.052 | Tubastatin A -0.096 | [1] 0.001 | defactinib 0.018 | [2] -0.02 | encorafenib 0.014 | [3] 0.011 | alisertib 0.014 | [4] 0 | gefitinib 0.003

Further records follow:

CCNK isoform 4 (UniProt O75909)
inactive: alvocidib -0.094 | Tubastatin A -0.004 | [1] 0.01 | defactinib -0.011 | [2] 0.009 | encorafenib 0.017 | [3] -0.035 | alisertib 0.071 | [4] 0 | gefitinib 0.046

CD40 (UniProt P25942)
inactive: alvocidib -0.121

CCDC88C (UniProt Q9P219)
inactive: alvocidib -0.06 | Tubastatin A -0.014 | [1] 0.153 | defactinib 0.057 | [2] -0.07 | encorafenib -0.347 | [3] 0.256 | alisertib 0.079 | [4] 0.108 | gefitinib -0.03

CCNDBP1 (UniProt O95273)
inactive: alvocidib 0.122 | Tubastatin A -0.015 | [1] 0.018 | defactinib 0.141 | [2] 0.063 | encorafenib 0.114 | [3] -0.088 | alisertib -0.093 | [4] -0.01 | gefitinib 0.054

CCDC6 (UniProt Q16204)
inactive: alvocidib -0.005 | Tubastatin A 0.006 | [1] 0.001 | defactinib 0.005 | [2] -0.018 | encorafenib 0.002 | [3] -0.037 | alisertib -0.006 | [4] 0.009 | gefitinib -0.026

CCDC47 (UniProt Q96A33)
inactive: alvocidib 0.009 | Tubastatin A 0.016 | [1] -0.015 | defactinib 0.004 | [2] -0.028 | encorafenib -0.045 | [3] -0.037 | alisertib 0.037 | [4] -0.035 | gefitinib -0.011

CCDC88A (UniProt Q3V6T2)
inactive: alvocidib -0.031 | Tubastatin A -0.001 | [1] -0.01 | defactinib 0.015 | [2] 0.008 | encorafenib -0.002 | [3] 0.046 | alisertib 0.011 | [4] 0.019 | gefitinib -0.008

CD55 isoform 7 (UniProt P08174)
inactive: alvocidib -0.044 | Tubastatin A 0.093 | [1] -0.071 | defactinib -0.017 | [2] 0.024 | encorafenib -0.028 | [3] 0.002 | alisertib -0.096 | [4] 0.02 | gefitinib 0.062

CCDC90B (UniProt Q9GZT6)
inactive: alvocidib 0.054 | Tubastatin A 0.045 | [1] 0.026 | defactinib 0.117 | [2] 0.033 | encorafenib 0.015 | [3] -0.164 | alisertib -0.04 | [4] 0.019 | gefitinib -0.026

CBL (UniProt P22681)
inactive: alvocidib -0.001 | Tubastatin A 0.025 | [1] 0.027 | defactinib 0.038 | [2] 0.054 | encorafenib 0.023 | [3] -0.076 | alisertib -0.015 | [4] 0 | gefitinib -0.005

CBX1 (UniProt P83916)
inactive: alvocidib 0.078 | Tubastatin A 0.011 | [1] 0.011 | defactinib -0.001 | [2] 0.025 | encorafenib 0.01 | [3] -0.055 | alisertib 0.012 | [4] -0.025 | gefitinib 0.059

CCAR1 (UniProt Q8IX12)
inactive: alvocidib -0.049 | Tubastatin A 0.017 | [1] 0.004 | defactinib 0.019 | [2] 0.025 | encorafenib 0.001 | [3] 0.098 | alisertib 0 | [4] 0.01 | gefitinib -0.004

CASP10 isoform 4 (UniProt Q92851)
inactive: alvocidib 0.035 | Tubastatin A 0.005 | [1] 0.006 | defactinib 0.021 | [2] 0.046 | encorafenib 0.008 | [3] 0.016 | alisertib -0.036 | [4] 0.012 | gefitinib 0.017

CCDC124 (UniProt Q96CT7)
inactive: alvocidib 0.029 | Tubastatin A 0.024 | [1] 0.004 | defactinib 0.025 | [2] 0.015 | encorafenib 0.038 | [3] -0.05 | alisertib -0.014 | [4] 0.001 | gefitinib -0.011

CBFB isoform 2 (UniProt Q13951)
inactive: alvocidib -0.068 | Tubastatin A 0.001 | [1] -0.013 | defactinib -0.061 | [2] -0.063 | encorafenib 0.018 | [3] -0.083 | alisertib 0.009 | [4] -0.034 | gefitinib -0.03

CASP2 (UniProt P42575)
inactive: alvocidib -0.031 | Tubastatin A -0.027 | [1] 0.033 | defactinib 0.029 | [2] 0.011 | encorafenib -0.043 | [3] -0.007 | alisertib -0.019 | [4] 0.001 | gefitinib -0.087

CBX3 (UniProt Q13185)
inactive: alvocidib -0.008 | Tubastatin A 0.058 | [1] -0.04 | defactinib 0.036 | [2] 0.035 | encorafenib -0.051 | [3] -0.064 | alisertib 0.034 | [4] -0.008 | gefitinib -0.01

Source: the supplement of paper PMC10849652
